Numbering of substitutions follows the chain as printed. For at least one entry, the source does not settle the construct or the ends of the probe. For part of these data: The comparison behind a weaker result is the experiment's own reference, which may not be listed here. Protein sequences can lack the tags named with them. For part of these data: At least one verdict was read from the data and is not stated in words by the source.
What was measured:
Test in all cases: EMSA
Conditions in all cases: not given; protein translated in vitro; residues 1-268; label: 32P (T4 PNK)
[1] = target: T1, Slug6M K188R,K239R,K240R,K244R,K248R,K258R (human) (UniProt O43623)
T1 sequence (looked up): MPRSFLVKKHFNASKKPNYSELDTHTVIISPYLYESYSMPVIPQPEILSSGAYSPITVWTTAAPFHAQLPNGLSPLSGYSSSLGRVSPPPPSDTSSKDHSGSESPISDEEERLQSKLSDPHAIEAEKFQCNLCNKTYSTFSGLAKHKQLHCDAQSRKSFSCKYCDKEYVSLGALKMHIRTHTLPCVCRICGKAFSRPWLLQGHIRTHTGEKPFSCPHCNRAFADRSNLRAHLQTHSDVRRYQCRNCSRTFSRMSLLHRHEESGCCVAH

Slug wild-type (human) = target: T2, Slug wild-type (human) (UniProt O43623)
T2 sequence (looked up): T1 sequence (looked up) with R188K, R239K, R240K, R244K, R248K, R258K

[2] = target: T3, Slug8M K188R,K192R,K211R,K239R,K240R,K244R,K248R,K258R (human) (UniProt O43623)
T3 sequence (looked up): T1 sequence (looked up) with K192R, K211R

“CGTCGGAACTGCAAAGCACCTGTGAGCTTGCGGAAGTC (double strand) [E-box C probe]”: binds more weakly [1]; binds (Slug wild-type (human)); binds more weakly [2].

— paper PMC6322271
